Data reported in US20160015828A1 (AbbVie / Abbott, published 2016).
Substitutions are numbered along the chain they refer to. No constants are given. Whether binding was seen depends on the method and setting. Some results given as binding are weak or reduced against the parent protein; the word gives no strength.

Sequences of proteins named here, by UniProt entry; tags and fusion partners are left off. Residues count along the entry.
UniProt O88516, residues 33-592: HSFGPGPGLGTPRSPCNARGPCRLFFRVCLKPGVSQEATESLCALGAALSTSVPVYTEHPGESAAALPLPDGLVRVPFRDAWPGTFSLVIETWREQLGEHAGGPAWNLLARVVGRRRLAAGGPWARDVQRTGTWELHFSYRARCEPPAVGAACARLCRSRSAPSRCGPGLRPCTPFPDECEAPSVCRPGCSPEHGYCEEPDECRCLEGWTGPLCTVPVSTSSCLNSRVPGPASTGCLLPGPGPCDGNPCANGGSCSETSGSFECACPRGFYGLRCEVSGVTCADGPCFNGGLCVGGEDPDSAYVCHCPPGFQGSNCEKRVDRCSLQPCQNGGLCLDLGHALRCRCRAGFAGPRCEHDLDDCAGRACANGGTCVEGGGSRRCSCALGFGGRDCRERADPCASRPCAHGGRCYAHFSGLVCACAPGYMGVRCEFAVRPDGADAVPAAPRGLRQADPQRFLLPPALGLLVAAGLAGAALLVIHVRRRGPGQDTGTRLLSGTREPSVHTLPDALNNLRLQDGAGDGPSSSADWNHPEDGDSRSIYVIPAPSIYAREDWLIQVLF

B1: chimeric SC16.34 (antibody, human IgG1, kappa, V domains shown)
VH: QIQLVQSGPELKRPGETVKISCKASGYTFTNYGMNWVKQAPGKGLKWMGWINTYTGDPTYADDFKGRFAFSLETSASTAYLQINNLKNEDTATYFCARIGGNSPSDYWGQGTSLTVSS
VL: SIVMTQTPKFLLVSAGDRVTITCKASQSVSNDVAWYQQKPGQSPKLLIYYASNRYSGVPDRFTGSGYGTDFTFTISTVQAEDLAVYFCQQDYSSPWTFGGGTKLEIKR
B2: chimeric SC16.56 (antibody, human IgG1, kappa, V domains shown)
VH: B1 VH with R13K, G49A, D57E, Y80S, N84I, G101D, N102S, S113T
VL: B1 VL with A34V, S56T, T63A, T72S, S93T, K107R
B3: hSC16.34 (antibody, human IgG1, kappa, V domains shown)
VH: QVQLVQSGAEVKKPGASVKVSCKASGYTFTNYGMNWVRQAPGQRLEWMGWINTYTGDPTYADDFKGRVTITRDTSASTAYMELSSLRSEDTAVYYCARIGGNSPSDYWGQGTTVTVSS
VL: DIQMTQSPSSLSASVGDRVTITCKASQSVSNDVAWYQQKPGKVPKLLIYYASNRYSGVPSRFSGSGSGTDFTLTISSLQPEDVATYFCQQDYSSPWTFGGGTKVEIKR
B4: hSC16.56 (antibody, human IgG1, kappa, V domains shown)
VH: B3 VH with R44G, D57E, I70M, R72T, A76T, S84R, E89D, G101D, N102S, T113L
VL: EIVMTQSPATLSVSPGERATLSCKASQSVSNDVVWYQQKPGQAPRLLIYYASNRYTGIPARFSGSGSGTEFTLTISSLQSEDFAVYYCQQDYTSPWTFGQGTKLEIKR
B5: hSC16.13 (antibody, human IgG1, kappa, V domains shown)
VH: QITLKESGPTLVKPTQTLTLTCTFSGFSLSTSGMGVGWIRQPPGKALEWLAHIWWDDVKRYSPSLKSRLTITKDTSKNQVVLTMTNMDPVDTATYYCARIVSFDNDVVSAMDYWGQGTLVTVSS
VL: DIQMTQSPSSLSASVGDRVTITCSASSSVSYMYWYQQKPGKAPKLLIYLTSNLASGVPSRFSGSGSGTDFTLTISSLQPEDFATYYCQQWRSNPFTFGQGTKLEIKR
B6: hSC16.15 (antibody, human IgG1, kappa, V domains shown)
VH: QVQLVQSGAEVKKPGASVKVSCKASGYTFTRYWIHWIRQAPGQGLEWMGYINPTTVYTEFNQNFKDRVTMTRDTSTSTVYMELSSLRSEDTAVYYCARGGSNFFDYWGQGTTVTVSS
VL: AIQLTQSPSSLSASVGDRVTITCRASENIYYNLAWYQQKPGKAPKLLIYTANSLEDGVPSRFSGSGSGTDFTLTISSLQPEDFATYFCKQAYDVPPTFGGGTKLEIKR
B7: chimeric SC16.25 (antibody, human IgG1, kappa, V domains shown)
VH: QVTLKESGPGILQPSQTLSLTCSFSGFSLSTSGMGVGWIRQPSGEGLEWLTDIWWDDNKYYNPSLKSRLTISKDTSSNQVFLNITSVDTADTATYYCARRVNYYYDPYYAMDYWGQGTSVTVSS
VL: QIVLTQSPAIMSASPGEKVTMTCSASSSVSYMHWYQQKSGTSPKRWIYDSSKLASGVPARFSGSGSGTSYSLTISSMEAEDAATYYCQQWSSNPLTFGAGTKLELKR
B8: hSC16.25 (antibody, human IgG1, kappa, V domains shown)
VH: QITLKESGPTLVKPTQTLTLTCTFSGFSLSTSGMGVGWIRQPPGKALEWLTDIWWDDNKYYNPSLKSRLTITKDTSKNQVVLTMTNMDPVDTATYYCARRVNYYYDPYYAMDYWGQGTLVTVSS
VL: EIVLTQSPDFQSVTPKEKVTITCSASSSVSYMHWYQQKPDQSPKLLIKDSSKLASGVPSRFSGSGSGTDFTLTINSLEAEDAATYYCQQWSSNPLTFGQGTKLEIKR
B9: SC16.34 (antibody, V domains shown)
VH: B1 VH
VL: SIVMTQTPKFLLVSAGDRVTITCKASQSVSNDVAWYQQKPGQSPKLLIYYASNRYSGVPDRFTGSGYGTDFTFTISTVQAEDLAVYFCQQDYSSPWTFGGGTKLEIK
notes: murine mAb; V regions only
B10: SC16.56 (antibody, V domains shown)
VH: B1 VH with R13K, G49A, D57E, Y80S, N84I, G101D, N102S, S113T
VL: B9 VL with A34V, S56T, T63A, T72S, S93T, K107R
notes: murine mAb; V regions only
B11: SC16.15 (antibody, V domains shown)
VH: QVQLQQSGAELAKPGASVKMSCKASGYTFTRYWIHWIKQRPGQGLEWIGYINPTTVYTEFNQNFKDKATLTADKSSTTASMQLSSLTSEDSAVYYCARGGSNFFDYWGQGTTLTVSS
VL: DIQMTQSPASLAASVGETVAITCRASENIYYNLAWYQQKQGKSPQLLIYTANSLEDGVPSRFSGSGSGTQYSLKINSMQPEDSATYFCKQAYDVPPTFGGGTKLEIK
notes: murine mAb; V regions only
B12: SC16.4 (antibody, V domains shown)
VH: QIQLVQSGPELKKPGETVKISCKASGYTFTDYSMHWVKQAPGKGLKWMGWINTETGEPGYADDFKGRFAFSLETSASTAYLQINNLKNEDTATYFCARYDGYAMDYWGQGTSVTVSS
VL: DIQMTQTTSSLSASLGDRVTISCRASQDISNYLNWYQQKPDGTVKLLIYYTSRLHSGVPSRFSGSGSGTDYSLTISNLELEDIATYFCQQGDMLPWTFGGGTKLEIK
notes: murine mAb; V regions only
B13: SC16.8 (antibody, V domains shown)
VH: QAQLQQSGAELVRPGTSVKVSCKASGYAFTNYLIEWVKQRPGQGLEWIGVINPGTGGTNYNENFKGKATLTADKSSSTAYMQLSSLTSDDSAVYFCARSPYDYHEGAMDYWGQGTSVTVSS
VL: EIQMTQSPSSMSASLGDRITITCQATQDIVKNLNWYQQKPGKPPSFLIYYAIELAEGVPSRFSGSGSGSDYSLTISNLESEDFADYYCLQFYEFPFTFGAGTKLELK
notes: murine mAb; V regions only
B14: SC16.103 (antibody, V domains shown)
VH: QVTLKESGPGILKPSQTLSLTCSFSGFSLSTSGMGIGWIRQPSGKGLEWLAHIWWDDDKYYNPSLKSQLTISKDSSRNQVFLKITSVDTADTATYYCARRGTAYYFDYWGQGTTLTVSS
VL: DIVLTQSPASLAVSLGQRATISCRASKSVSTSGYSYMHWYQQKPGQPPKLLIYLASNLESGVPARFSGSGSGTDFTLNIHPVEEEDAATYYCQHSRELPLTFGAGTKLELK
B15: SC16.22 (antibody, V domains shown)
VH: QVQLQQPGAELVKPGASVKLSCKASGYTFTTYWMHWVKQRPGQGLEWIGEIDPSDSYTYYNQKFKGKATLTVDKSSSTAYMQLSSLTSEDSAVYYCARGDYGNPYAMDYWGQGSSVTVSS
VL: B12 VL with S30K, L46P, L54V, L80Q, D92Y, M93T, W96F, G100S
B16: SC16.31 (antibody, V domains shown)
VH: EVQLQQSGPELVKPGASVKISCKASGYSFSRFYMHWVKQSPENSLEWIGEINPSTGGTSYNQKFKGKATLTVDKSSSTAYMQLKSLTSEESAVYYCTRGYGSNWYFDVWGAGTTVTVST
VL: DIVLTQSPLSLPVNIGDQASISCKSTKSLLNSDGFTYLDWYLQRPGQSPQFLIYLVSNRFSGVPDRFSGSGSGTDFTLKISRVEAEDLGVYYCFQSNYLPLTFGAGTKLELR
B17: SC16.136 (antibody, V domains shown)
VH: EVQLQQSGPELVKPGASVKMSCKASGYTFTSYVMHWVKQKPGQGLEWIGYINPYNDGTKYNEKFKGKATLTSDKSSSTAYMELSSLTSEDSAVYYCARDRSGYEDYYGMDYWGQGTSVTVSS
VL: DIQMTQSPASLSASVGETVTITCRASGNIHNYLAWYQQKQGKSPHLLVYNAKTLADGVPSRFSGSGSGTQYSLKINSLQPEDFGSYYCQHFWSTPWTFGGGTKLEIK
B18: SC16.142 (antibody, V domains shown)
VH: EVQLQQSGPELVKPGASVKISCKASGYTFTDYNMHWVKQSHGKSLEWIGFFYPYNGNTVYSQKFKSKATLTVDNSSSTAYMELRSLTSEDSAVYYCARLNWEGYWGQGTTLTVSS
VL: DIKMTQSPSSMYASLGERVTITCKASQDINNYLSWFQQKPGKSPKTLIYRANRLVDGVPSRFSGSGSGQDYSLTISSLEYEDMGIYYCLQYDEFPYTFGGGTKLEIK
B19: SC16.105 (antibody, V domains shown)
VH: QVQLQQPGAELVKPGASVKLSCKASGYTFTSYWMHWVKQRPGQGLEWIGVINPSNGRTNYNEKFKSKATLTVDKSSSTAYMQLSSLTSEDSAVYYCARRRELGTLYAMDYWGQGTSVTVSS
VL: DIVMTQSHKFMSTSVGDRVSITCKASQDVGTAVAWYQQKPGQSPKLLIYWASIRHTGVPDRFTGSGSGTDFTLTISNVQSEDLADYFCQQYSSYPLTFGAGTKLELK

target: DLL3 (UniProt Q9NYJ7); assay: SPR (Biacore 2000)

binding, binds:
B1
B2
B3
B4
B5
B6
B7

Target: T1, human DLL3 (UniProt Q9NYJ7 27-492)
T1 chain: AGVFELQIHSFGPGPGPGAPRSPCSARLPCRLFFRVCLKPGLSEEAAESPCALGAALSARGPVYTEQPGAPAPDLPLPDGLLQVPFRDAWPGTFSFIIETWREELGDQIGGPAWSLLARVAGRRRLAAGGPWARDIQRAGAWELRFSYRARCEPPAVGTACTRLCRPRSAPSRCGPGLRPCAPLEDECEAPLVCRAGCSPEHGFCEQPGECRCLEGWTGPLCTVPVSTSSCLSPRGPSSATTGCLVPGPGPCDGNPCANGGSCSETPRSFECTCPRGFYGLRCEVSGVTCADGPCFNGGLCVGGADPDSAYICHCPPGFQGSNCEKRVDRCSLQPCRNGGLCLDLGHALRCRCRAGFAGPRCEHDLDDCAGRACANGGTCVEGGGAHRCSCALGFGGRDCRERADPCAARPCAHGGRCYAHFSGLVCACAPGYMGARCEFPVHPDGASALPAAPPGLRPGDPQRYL
Assay: SPR (Biacore 2000)

binding, binds:
B8

target: DLL3 (UniProt Q9NYJ7); assay: screening on immobilized DLL3 or 293-hDLL3 cells

binding, binds:
B9
B10
B11
B12
B13

Target: T1, human DLL3
Assay: screening on immobilized DLL3 or 293-hDLL3 cells

binding, binds:
B14
B15
B16
B17
B18
B19

target: murine DLL3 over-expressed on 293 cells (murine) (UniProt O88516); assay: flow cytometry, 293 cells over-expressing murine DLL3

binding, binds:
B9
B10
B11
B12
B13
